Assay results published in paper PMC9596381.
No constants are given. Whether binding was seen depends on the method and setting. Some binding calls cover weakened binding; strength is not graded here.

Amino acid sequences for entries named in this document (tags omitted). A change or cut given only in a name is not applied to a line headed by its entry. Chains listed by the source or under a name are the forms on record and can include a tag or linker. Residues count along the entry.
UniProt O08747: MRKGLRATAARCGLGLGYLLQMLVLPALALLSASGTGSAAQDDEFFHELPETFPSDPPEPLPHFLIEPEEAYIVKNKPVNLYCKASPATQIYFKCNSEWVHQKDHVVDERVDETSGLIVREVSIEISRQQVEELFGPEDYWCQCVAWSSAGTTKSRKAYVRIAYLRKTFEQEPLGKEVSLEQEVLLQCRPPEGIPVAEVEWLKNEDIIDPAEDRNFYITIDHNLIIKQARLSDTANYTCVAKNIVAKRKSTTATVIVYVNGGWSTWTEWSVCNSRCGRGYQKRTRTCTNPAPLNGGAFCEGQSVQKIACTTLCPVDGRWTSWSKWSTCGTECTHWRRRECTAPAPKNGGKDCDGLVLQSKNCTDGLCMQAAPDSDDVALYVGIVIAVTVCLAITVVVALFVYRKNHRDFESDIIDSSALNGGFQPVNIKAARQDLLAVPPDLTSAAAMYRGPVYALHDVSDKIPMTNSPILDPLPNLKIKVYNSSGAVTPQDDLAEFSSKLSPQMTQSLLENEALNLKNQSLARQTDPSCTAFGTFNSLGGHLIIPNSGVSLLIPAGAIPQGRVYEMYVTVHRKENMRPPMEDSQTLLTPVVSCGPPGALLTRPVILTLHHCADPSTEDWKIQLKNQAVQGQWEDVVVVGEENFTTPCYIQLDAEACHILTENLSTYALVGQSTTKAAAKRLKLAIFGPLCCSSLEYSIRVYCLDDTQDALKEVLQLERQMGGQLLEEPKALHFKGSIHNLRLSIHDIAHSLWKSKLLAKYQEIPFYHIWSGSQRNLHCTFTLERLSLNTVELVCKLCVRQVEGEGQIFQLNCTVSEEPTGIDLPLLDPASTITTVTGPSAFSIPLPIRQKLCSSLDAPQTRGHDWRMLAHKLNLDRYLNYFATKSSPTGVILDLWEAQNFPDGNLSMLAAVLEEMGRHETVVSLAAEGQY
mouse Unc5C expressed on cells: residues 41-931 of O08747
mouse Unc5C ectodomain: residues 41-380 of O08747
UniProt Q8K1S4, residues 26-359: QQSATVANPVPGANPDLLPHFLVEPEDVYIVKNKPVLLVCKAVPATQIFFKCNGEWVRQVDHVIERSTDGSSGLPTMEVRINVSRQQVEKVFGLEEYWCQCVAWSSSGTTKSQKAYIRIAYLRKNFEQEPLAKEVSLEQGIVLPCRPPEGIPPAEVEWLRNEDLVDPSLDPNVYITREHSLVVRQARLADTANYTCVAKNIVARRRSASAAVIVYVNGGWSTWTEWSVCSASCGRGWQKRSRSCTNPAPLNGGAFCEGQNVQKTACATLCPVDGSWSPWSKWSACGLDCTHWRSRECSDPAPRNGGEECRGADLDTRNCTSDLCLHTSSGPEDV
UniProt Q6UXZ4, residues 33-379: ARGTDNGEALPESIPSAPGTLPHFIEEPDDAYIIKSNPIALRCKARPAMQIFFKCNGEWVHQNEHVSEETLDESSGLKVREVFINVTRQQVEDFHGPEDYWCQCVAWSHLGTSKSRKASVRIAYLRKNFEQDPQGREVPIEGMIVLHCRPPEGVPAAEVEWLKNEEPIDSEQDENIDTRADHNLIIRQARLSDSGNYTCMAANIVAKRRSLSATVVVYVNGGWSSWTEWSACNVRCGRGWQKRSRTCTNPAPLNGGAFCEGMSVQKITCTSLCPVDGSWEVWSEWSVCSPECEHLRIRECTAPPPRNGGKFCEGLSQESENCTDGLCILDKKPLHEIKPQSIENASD
UniProt P51654: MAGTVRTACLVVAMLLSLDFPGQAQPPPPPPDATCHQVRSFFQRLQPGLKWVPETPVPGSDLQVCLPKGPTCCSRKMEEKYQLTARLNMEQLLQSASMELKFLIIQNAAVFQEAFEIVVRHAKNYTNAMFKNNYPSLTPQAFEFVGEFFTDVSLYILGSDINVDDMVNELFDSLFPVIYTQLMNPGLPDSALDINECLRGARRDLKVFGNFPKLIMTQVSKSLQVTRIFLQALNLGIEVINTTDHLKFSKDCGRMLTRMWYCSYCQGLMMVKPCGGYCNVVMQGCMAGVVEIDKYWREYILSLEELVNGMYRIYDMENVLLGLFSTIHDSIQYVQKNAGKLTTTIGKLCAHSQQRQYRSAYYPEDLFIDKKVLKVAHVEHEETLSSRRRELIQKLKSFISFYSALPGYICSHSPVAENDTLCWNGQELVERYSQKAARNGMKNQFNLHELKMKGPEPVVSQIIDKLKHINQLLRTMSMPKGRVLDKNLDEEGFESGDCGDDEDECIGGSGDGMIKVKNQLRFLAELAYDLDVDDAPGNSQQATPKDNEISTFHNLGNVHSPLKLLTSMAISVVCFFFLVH
hGPC3^core N241Q mutant (hGPC3^coreUG) (P51654, form named): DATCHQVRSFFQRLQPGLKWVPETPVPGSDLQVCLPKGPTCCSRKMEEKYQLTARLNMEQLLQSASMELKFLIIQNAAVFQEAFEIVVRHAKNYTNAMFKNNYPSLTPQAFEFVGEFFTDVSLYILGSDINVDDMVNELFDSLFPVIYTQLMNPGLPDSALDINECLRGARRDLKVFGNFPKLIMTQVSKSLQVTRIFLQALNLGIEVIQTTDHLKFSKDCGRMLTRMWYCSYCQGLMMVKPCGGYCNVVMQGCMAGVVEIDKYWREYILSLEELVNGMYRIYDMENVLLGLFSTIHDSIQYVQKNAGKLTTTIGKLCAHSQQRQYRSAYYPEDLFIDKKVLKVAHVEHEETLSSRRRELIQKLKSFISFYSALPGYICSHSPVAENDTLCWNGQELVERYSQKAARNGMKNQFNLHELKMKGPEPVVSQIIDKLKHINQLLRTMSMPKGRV
UniProt Q6ZN44, residues 26-306: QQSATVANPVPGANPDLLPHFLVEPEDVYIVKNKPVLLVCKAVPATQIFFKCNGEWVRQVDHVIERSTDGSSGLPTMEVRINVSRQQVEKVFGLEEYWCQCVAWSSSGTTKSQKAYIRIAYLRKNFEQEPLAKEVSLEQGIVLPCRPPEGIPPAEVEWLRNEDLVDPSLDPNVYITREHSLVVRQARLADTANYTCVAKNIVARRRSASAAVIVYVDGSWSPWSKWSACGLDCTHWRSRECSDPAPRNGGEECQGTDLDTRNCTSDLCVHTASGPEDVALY
UniProt Q8IZJ1, residues 27-377: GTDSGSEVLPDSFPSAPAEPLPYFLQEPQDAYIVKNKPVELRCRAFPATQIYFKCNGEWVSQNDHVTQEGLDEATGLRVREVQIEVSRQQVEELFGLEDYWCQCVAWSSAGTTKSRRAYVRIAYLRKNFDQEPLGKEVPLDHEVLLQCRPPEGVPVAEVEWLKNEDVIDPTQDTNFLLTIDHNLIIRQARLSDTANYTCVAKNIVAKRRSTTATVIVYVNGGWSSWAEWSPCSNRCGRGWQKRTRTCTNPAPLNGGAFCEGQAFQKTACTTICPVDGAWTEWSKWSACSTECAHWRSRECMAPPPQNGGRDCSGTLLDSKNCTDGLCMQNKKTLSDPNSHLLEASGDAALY
UniProt Q8CFZ4, residues 31-559: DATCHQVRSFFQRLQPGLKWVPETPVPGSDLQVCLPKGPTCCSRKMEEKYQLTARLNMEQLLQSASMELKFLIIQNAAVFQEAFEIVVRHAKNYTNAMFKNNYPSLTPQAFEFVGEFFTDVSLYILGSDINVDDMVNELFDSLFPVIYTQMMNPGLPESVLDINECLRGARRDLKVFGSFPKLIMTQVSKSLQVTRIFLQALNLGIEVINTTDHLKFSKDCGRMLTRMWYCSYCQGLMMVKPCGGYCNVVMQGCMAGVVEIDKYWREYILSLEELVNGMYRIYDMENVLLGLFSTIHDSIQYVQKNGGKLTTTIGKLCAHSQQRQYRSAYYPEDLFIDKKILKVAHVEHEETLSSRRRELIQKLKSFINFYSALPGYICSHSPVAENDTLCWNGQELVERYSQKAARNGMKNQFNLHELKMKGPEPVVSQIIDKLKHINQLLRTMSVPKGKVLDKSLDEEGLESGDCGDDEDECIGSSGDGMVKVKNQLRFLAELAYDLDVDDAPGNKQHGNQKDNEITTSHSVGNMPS

Assays:
[1] = target: mouse Unc5C expressed on cells (mouse) (UniProt O08747); assay: cell-based binding assay (fluorescence microscopy); HEK293T cells expressing mVenus-tagged receptor; 0.5 ug purified His-tagged protein pre-clustered with anti-His, 60 min on ice; anti-mouse-Cy3; co-localisation area quantified; only the binder purified
[2] = target: mouse Unc5C ectodomain (mouse) (UniProt O08747); assay: SPR; equilibrium binding at 25 C, Biacore T200; one partner biotinylated at a C-terminal Avi-tag on a streptavidin-coated CM5 chip; analyte in 2-fold dilution series; PBS or 20 mM Tris, 200 mM NaCl, 0.005% polysorbate 20, pH 7.5; apparent KD from a 1:1 model, indicative only; both purified
[3] = target: mouse Unc5A ectodomain, residues 1-359 (mUnc5A^ecto) (mouse) (UniProt Q8K1S4); assay: as above
[4] = target: human Unc5D (residues 33-379) alkaline phosphatase fusion (Unc5D-AP) (human) (UniProt Q6UXZ4); assay: ELISA; Unc5D-AP conditioned medium captured by anti-AP in 96-well plates as bait; culture medium of 95 ecto-Fc prey proteins added with anti-human IgG1-HRP; 4 h at room temperature; absorbance at 650 nm; in duplicate
[5] = target: biotinylated hGPC3^core (residues 32-483) coupled to streptavidin agarose (human) (UniProt P51654); assay: pull-down; biotinylated hGPC3^core on streptavidin agarose; hUnc5B^Ecto mixed with nanobody at 1:1, 1:5 and 1:10 molar ratios in 20 mM Tris-HCl pH 7.5, 200 mM NaCl, 1% BSA, 3 h; SDS-PAGE; both purified
[6] = target: mouse Unc5C ectodomain (mouse) (UniProt O08747); assay: SPR; Unc5A-D ectodomains immobilised; hGPC3^core or mGPC3^ecto injected in a 2-fold dilution series (top 4.5 uM) with Fc control protein, Nano^glue or Nano^break kept constant at 9 uM (with hGPC3^core) or 4.5 uM (with mGPC3^ecto); both purified
[7] = target: human Unc5A isoform 1 ectodomain, lacking TSP1 (hUnc5A^iso1) (human) (UniProt Q6ZN44); assay: SPR; equilibrium binding at 25 C, Biacore T200; one partner biotinylated at a C-terminal Avi-tag on a streptavidin-coated CM5 chip; analyte in 2-fold dilution series; PBS or 20 mM Tris, 200 mM NaCl, 0.005% polysorbate 20, pH 7.5; apparent KD from a 1:1 model, indicative only; both purified

## hGPC3^core N241Q mutant (hGPC3^coreUG) (from UniProt P51654 32-483) (domain or fragment)
[1]
  binding: no binding
[2]
  binding: no binding
[3]
  binding: no binding

## human GPC3 (residues 25-563) Fc-tagged prey (from UniProt P51654 25-563) (Fc fusion)
[4]
  binding: binds

## human Unc5B ectodomain (hUnc5B^ecto) (from UniProt Q8IZJ1 27-377) (domain or fragment)
[5]
  binding: binds

## human glypican-3 core domain, residues 32-483 (hGPC3^core) (from UniProt P51654 32-483) (domain or fragment)
[6]
  binding: binds
[1]
  binding: binds
[7]
  binding: no binding
[2]
  binding: binds

## murine GPC3 ectodomain, residues 31-559 (mGPC3^ecto) (from UniProt Q8CFZ4 31-559) (domain or fragment)
[6]
  binding: binds
